60 targets from the supplement of paper PMC6411743 can be followed below.

Protein sequences, listed by entry. Tags and fused reporters are not part of them. Lines headed by an entry give the natural chain unless they say otherwise; changes in a name come on top.
UniProt Q96BZ8: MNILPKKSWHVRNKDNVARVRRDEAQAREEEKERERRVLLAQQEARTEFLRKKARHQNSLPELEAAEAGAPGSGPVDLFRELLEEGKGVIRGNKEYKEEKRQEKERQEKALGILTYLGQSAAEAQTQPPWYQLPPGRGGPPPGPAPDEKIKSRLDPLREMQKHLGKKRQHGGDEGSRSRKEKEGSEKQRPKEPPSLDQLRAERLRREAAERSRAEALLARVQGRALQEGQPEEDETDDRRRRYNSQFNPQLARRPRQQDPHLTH
UniProt Q96HN2, whole entry: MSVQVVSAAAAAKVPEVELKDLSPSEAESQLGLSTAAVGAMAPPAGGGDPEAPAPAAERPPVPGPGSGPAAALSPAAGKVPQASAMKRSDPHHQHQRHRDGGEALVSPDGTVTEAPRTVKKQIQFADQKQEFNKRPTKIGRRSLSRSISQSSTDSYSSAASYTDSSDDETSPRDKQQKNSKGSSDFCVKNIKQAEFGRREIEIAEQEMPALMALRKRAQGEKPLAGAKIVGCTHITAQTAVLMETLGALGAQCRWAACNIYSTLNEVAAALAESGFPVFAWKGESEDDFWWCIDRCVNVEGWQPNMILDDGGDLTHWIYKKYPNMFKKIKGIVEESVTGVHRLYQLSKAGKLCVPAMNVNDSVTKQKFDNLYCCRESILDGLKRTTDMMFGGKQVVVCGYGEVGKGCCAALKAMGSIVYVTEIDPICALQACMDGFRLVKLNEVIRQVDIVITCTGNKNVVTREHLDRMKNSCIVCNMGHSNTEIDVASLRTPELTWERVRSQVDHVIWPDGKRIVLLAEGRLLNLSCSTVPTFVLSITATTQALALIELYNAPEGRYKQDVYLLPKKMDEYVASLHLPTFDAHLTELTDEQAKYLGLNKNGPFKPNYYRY
UniProt Q96N66: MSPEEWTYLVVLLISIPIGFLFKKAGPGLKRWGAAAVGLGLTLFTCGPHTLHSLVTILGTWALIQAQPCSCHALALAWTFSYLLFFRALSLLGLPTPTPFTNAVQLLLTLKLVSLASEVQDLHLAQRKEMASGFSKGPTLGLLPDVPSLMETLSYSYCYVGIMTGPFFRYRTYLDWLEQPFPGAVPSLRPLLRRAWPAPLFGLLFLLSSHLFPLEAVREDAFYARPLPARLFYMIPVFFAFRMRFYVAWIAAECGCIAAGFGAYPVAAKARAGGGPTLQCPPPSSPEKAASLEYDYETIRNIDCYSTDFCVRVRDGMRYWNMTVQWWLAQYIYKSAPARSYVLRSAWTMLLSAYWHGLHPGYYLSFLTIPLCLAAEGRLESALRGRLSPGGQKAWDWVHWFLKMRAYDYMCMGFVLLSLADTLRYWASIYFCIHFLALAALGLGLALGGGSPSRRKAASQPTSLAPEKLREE
UniProt Q92973: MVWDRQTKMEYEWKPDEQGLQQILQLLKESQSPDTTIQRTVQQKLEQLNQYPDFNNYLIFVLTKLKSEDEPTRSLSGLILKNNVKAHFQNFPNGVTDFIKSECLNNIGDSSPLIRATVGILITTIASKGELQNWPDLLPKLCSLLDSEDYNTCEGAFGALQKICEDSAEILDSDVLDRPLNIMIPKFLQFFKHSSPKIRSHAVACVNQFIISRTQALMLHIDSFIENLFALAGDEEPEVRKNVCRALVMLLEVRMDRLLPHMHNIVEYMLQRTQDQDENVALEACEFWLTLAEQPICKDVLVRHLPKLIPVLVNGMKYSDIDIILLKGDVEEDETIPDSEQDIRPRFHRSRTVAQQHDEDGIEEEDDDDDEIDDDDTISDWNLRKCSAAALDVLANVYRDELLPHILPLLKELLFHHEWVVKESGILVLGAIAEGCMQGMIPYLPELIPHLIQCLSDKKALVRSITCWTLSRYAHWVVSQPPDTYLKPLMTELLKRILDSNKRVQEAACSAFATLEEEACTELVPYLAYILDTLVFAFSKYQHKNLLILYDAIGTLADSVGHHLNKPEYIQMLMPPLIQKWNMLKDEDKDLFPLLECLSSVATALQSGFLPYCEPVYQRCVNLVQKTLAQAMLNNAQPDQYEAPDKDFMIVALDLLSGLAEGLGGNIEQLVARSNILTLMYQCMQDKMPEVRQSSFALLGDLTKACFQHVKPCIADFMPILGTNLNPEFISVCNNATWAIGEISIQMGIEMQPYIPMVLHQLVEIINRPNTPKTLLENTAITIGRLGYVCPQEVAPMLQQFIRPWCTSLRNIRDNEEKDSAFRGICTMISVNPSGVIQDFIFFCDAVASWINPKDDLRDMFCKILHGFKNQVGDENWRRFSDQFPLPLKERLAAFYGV
UniProt Q96CN7: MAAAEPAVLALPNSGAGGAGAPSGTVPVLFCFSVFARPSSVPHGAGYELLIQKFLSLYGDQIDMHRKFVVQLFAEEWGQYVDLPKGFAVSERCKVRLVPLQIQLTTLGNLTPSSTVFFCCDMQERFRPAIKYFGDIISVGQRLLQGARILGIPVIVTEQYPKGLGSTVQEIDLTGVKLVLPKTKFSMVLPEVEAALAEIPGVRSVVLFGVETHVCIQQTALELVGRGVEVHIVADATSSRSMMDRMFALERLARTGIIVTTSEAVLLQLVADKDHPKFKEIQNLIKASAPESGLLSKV
UniProt Q96CB8, whole entry: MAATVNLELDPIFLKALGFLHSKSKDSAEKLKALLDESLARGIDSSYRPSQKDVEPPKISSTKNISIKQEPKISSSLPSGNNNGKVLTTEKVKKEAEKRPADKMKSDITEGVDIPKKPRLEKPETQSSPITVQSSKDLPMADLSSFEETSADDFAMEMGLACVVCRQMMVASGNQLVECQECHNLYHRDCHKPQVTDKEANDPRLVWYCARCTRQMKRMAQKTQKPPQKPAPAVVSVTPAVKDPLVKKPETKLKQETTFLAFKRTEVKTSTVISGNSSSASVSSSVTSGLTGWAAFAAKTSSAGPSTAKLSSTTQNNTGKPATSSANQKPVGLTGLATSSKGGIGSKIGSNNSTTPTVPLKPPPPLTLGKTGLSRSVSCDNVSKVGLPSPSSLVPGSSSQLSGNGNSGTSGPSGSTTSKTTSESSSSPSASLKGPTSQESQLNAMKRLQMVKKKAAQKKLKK
UniProt Q96B26, whole entry: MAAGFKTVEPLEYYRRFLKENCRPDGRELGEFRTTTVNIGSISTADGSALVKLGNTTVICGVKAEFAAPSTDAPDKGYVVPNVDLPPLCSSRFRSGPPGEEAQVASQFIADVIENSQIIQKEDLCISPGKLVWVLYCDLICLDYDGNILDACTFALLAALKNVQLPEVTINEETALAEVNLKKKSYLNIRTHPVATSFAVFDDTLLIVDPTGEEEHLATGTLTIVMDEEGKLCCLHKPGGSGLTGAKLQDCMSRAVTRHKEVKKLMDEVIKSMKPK
UniProt Q96NB2: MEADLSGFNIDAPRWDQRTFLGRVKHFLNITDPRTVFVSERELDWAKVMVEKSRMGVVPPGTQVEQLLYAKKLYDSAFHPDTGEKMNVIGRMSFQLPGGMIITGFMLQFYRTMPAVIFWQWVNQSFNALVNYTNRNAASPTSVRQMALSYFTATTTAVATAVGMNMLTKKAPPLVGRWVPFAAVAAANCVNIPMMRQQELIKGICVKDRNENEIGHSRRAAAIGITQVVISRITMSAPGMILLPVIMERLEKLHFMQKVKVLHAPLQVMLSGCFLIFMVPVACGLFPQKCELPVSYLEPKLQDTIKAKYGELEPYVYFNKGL
UniProt Q96I99: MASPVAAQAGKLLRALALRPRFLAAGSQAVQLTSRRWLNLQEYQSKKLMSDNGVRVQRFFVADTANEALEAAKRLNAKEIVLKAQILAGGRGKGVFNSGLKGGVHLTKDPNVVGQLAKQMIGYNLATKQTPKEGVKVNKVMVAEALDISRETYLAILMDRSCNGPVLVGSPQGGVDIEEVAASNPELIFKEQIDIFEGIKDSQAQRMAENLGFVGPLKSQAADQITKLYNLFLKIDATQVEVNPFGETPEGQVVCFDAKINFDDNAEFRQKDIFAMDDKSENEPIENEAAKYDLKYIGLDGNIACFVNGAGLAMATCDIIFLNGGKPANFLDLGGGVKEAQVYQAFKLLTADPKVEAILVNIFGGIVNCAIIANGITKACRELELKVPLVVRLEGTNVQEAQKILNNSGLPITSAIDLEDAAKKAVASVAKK
UniProt Q96AT1: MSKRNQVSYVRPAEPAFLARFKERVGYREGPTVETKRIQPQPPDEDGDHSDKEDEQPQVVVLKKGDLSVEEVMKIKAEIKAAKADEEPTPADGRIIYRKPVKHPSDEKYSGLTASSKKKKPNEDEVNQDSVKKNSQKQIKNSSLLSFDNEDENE
UniProt Q96AJ9: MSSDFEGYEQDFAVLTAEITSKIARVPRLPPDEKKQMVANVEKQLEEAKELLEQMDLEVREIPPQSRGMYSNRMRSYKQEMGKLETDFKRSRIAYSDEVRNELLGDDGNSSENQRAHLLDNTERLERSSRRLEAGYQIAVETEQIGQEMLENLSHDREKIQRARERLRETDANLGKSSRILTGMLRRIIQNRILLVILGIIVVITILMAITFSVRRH
UniProt Q96F44: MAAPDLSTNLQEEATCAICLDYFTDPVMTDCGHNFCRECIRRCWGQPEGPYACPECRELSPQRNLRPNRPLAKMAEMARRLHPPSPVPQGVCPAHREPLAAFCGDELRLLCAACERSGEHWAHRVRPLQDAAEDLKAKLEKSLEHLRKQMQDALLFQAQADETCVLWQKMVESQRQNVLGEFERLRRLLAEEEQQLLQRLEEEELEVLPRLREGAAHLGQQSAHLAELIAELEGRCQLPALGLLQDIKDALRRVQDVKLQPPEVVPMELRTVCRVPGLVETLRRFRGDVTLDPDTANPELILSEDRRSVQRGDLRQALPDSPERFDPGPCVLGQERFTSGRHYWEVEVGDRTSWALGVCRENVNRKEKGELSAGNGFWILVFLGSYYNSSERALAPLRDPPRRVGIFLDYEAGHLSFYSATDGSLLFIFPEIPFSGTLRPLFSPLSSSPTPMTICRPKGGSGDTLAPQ
UniProt Q96PM5: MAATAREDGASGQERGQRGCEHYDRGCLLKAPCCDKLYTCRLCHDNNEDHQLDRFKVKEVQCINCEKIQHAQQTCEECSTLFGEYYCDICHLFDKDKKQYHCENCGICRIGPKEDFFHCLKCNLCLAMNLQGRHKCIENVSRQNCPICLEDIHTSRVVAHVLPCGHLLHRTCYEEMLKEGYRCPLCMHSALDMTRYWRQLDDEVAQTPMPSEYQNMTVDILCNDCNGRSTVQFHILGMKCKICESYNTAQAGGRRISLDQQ
UniProt Q96I59: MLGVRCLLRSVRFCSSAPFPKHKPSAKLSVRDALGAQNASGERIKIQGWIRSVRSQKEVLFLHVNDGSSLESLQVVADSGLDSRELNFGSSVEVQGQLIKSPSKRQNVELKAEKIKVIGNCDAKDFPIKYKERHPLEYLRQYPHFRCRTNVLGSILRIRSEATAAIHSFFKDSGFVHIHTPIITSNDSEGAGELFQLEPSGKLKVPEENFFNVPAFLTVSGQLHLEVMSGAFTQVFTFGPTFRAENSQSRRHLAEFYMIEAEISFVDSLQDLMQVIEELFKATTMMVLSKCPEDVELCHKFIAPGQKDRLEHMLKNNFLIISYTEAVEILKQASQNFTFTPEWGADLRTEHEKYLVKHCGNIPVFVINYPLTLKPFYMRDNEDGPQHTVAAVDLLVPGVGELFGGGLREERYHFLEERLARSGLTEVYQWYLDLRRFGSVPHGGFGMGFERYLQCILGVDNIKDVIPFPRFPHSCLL
UniProt Q96HW7, whole entry: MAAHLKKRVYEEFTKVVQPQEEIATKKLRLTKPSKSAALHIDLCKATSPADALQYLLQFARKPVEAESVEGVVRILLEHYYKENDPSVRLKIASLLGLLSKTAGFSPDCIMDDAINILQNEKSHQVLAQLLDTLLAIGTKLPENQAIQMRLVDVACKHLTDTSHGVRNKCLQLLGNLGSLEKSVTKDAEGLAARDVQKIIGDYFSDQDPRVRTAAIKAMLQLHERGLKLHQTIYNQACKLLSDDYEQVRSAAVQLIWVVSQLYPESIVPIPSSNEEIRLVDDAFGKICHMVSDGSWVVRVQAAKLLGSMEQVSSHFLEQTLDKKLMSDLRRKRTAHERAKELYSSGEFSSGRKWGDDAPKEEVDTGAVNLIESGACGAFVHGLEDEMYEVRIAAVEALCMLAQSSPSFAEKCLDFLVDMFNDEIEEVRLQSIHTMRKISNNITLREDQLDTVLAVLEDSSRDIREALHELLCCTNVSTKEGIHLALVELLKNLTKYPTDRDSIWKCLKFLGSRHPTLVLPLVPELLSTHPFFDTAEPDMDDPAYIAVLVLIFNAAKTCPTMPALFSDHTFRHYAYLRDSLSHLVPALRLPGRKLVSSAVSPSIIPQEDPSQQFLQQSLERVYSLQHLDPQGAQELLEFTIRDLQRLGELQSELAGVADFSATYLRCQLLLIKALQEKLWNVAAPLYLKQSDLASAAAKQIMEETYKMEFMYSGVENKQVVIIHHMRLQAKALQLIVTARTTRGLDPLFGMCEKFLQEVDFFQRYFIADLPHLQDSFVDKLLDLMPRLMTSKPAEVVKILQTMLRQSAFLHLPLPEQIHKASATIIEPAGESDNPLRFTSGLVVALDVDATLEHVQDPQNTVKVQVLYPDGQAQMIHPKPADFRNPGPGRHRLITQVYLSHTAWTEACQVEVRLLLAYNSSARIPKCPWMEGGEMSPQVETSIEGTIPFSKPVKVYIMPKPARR

Compound in this assay: Nc1ncnc2c1ncn2[C@@H]1O[C@H](COP(=O)(O)OP(=O)(O)NP(=O)(O)O)[C@@H](O)[C@H]1O [adenylyl imidodiphosphate]
Kind of assay: NP40-soluble protein abundance relative to vehicle (solubility fold change) (ratio); higher = more soluble protein in presence of AMP-PNP. The gist of the method: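 Crude Jurkat lysate, prepared by Dounce homogenisation, was exposed to eight concentrations from 0.1 to 10 mM for 10 min at room temperature and then 3 min at 37 °C. Solubilisation used 0.8% NP40 with benzonase for 60 min at 4 °C, followed by ultracentrifugation and TMT labelling of the supernatant for LC-MS/MS. After vsn normalisation of intensities, each value is the fold change against the detergent-processed vehicle within each replicate, across three independent experiments.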

± gives the standard deviation of the averaged measurements. The list shows a part of the results, in another mix than the full data. Most entries show no effect beyond the scatter of the controls.

UniProt Q96ME1-4: the NP40-soluble protein abundance reads like this: (concentration: 0.1mM) 1.01 ± 0.016; (concentration: 0.5mM) 0.984 ± 0.057.

Turning to LENG1 (UniProt Q96BZ8), the NP40-soluble protein abundance is, setting by setting: (concentration: 0.1mM) 0.9875 ± 0.0039; (concentration: 0.5mM) 1.02 ± 0.019.

As to RNF31 (UniProt Q96EP0), the NP40-soluble protein abundance by setting is: (concentration: 0.1mM) 0.9915 ± 0.0089; (concentration: 0.5mM) 0.948 ± 0.011.

As to UniProt Q96F46 and related entries, the NP40-soluble protein abundance (concentration: 0.1mM) was 0.987 ± 0.026 and the NP40-soluble protein abundance (concentration: 0.5mM) worked out at 0.99 ± 0.022.

For the target UniProt Q96DA6 and related entries, the NP40-soluble protein abundance by setting is: (concentration: 0.1mM) 1.04 ± 0.087; (concentration: 0.5mM) 1.03 ± 0.096.

Regarding ZC3H10 (UniProt Q96K80), the NP40-soluble protein abundance runs as follows: (concentration: 0.1mM) 0.9652 ± 0.0011; (concentration: 0.5mM) 0.993 ± 0.057.

As to PRRC1 (UniProt Q96M27), the NP40-soluble protein abundance is, setting by setting: (concentration: 0.1mM) 1.04 ± 0.069; (concentration: 0.5mM) 1 ± 0.012.

UniProt Q96HN2-2|Q96HN2: the NP40-soluble protein abundance is, setting by setting: (concentration: 0.1mM) 0.987 ± 0.026; (concentration: 0.5mM) 1.01 ± 0.03.

Take RBM17 (UniProt Q96I25): the NP40-soluble protein abundance reads like this: (concentration: 0.1mM) 1.03 ± 0.041; (concentration: 0.5mM) 1.07 ± 0.028.

Regarding UniProt Q96AQ8, the NP40-soluble protein abundance reads like this: (concentration: 0.1mM) 0.981 ± 0.046; (concentration: 0.5mM) 0.987 ± 0.03.

For the target UniProt Q96N66 and related entries, the NP40-soluble protein abundance reads like this: (concentration: 0.1mM) 1.03 ± 0.033; (concentration: 0.5mM) 0.999 ± 0.067.

On to UniProt Q92973 and related entries, for which the NP40-soluble protein abundance is 1.06 ± 0.013 (concentration: 0.1mM) and 0.99 ± 0.023 (concentration: 0.5mM).

Consider UniProt Q96GS4, for which the NP40-soluble protein abundance amounted to 0.9812 ± 0.0083 (concentration: 0.1mM) and 1 ± 0.015 (concentration: 0.5mM).

For the target UniProt Q96D31 and related entries, the NP40-soluble protein abundance is, setting by setting: (concentration: 0.1mM) 1.024 ± 0.0055; (concentration: 0.5mM) 0.992 ± 0.022.

Turning to ISOC1 (UniProt Q96CN7), the NP40-soluble protein abundance was 1.01 ± 0.024 (concentration: 0.1mM) and 0.991 ± 0.054 (concentration: 0.5mM).

For the target UniProt Q96CB8 and related entries, the NP40-soluble protein abundance turned out to be 0.983 ± 0.017 (concentration: 0.1mM) and 1.03 ± 0.053 (concentration: 0.5mM).

As to EXOSC8 (UniProt Q96B26), the NP40-soluble protein abundance by setting is: (concentration: 0.1mM) 1.03 ± 0.045; (concentration: 0.5mM) 1.01 ± 0.032.

On to UniProt Q96L91 and related entries, for which the NP40-soluble protein abundance was found to be 1.03 ± 0.031 (concentration: 0.1mM) and 1.02 ± 0.033 (concentration: 0.5mM).

Consider UniProt Q96N46 and related entries, for which the NP40-soluble protein abundance runs as follows: (concentration: 0.1mM) 1 ± 0.023; (concentration: 0.5mM) 0.998 ± 0.023.

On to UniProt Q96JM7 and related entries, for which the NP40-soluble protein abundance is, setting by setting: (concentration: 0.1mM) 0.976 ± 0.026; (concentration: 0.5mM) 0.957 ± 0.048.

As to UniProt Q96ED9-2|Q96ED9, the NP40-soluble protein abundance is, setting by setting: (concentration: 0.1mM) 1 ± 0.018; (concentration: 0.5mM) 1.01 ± 0.02.

As for KCTD12 (UniProt Q96CX2), the NP40-soluble protein abundance worked out at 1.01 ± 0.033 (concentration: 0.1mM) and 0.999 ± 0.067 (concentration: 0.5mM).

Turning to UniProt Q96LT9 and related entries, the NP40-soluble protein abundance (concentration: 0.1mM) turned out to be 1.015 ± 0.0028 and the NP40-soluble protein abundance (concentration: 0.5mM) was found to be 1.01 ± 0.033.

As to SFXN2 (UniProt Q96NB2), the NP40-soluble protein abundance (concentration: 0.1mM) stood at 0.994 ± 0.03 and the NP40-soluble protein abundance (concentration: 0.5mM) worked out at 0.968 ± 0.04.

For the target UniProt Q93050 and related entries, the NP40-soluble protein abundance was determined as 0.996 ± 0.021 (concentration: 0.1mM) and 0.953 ± 0.047 (concentration: 0.5mM).

Regarding SUCLG2 (UniProt Q96I99), the NP40-soluble protein abundance is, setting by setting: (concentration: 0.1mM) 1 ± 0.014; (concentration: 0.5mM) 1.011 ± 0.0022.

Turning to EDC3 (UniProt Q96F86), the NP40-soluble protein abundance runs as follows: (concentration: 0.1mM) 1.07 ± 0.027; (concentration: 0.5mM) 1.03 ± 0.024.

DDRGK1 (UniProt Q96HY6): the NP40-soluble protein abundance amounted to 1.03 ± 0.054 (concentration: 0.1mM) and 0.997 ± 0.091 (concentration: 0.5mM).

For USP13 (UniProt Q92995), the NP40-soluble protein abundance reads like this: (concentration: 0.1mM) 1 ± 0.015; (concentration: 0.5mM) 0.9817 ± 0.0046.

As to UniProt Q96DC7 and related entries, the NP40-soluble protein abundance by setting is: (concentration: 0.1mM) 1.02 ± 0.032; (concentration: 0.5mM) 0.989 ± 0.019.

Consider UniProt Q92989 and related entries, for which the NP40-soluble protein abundance is 1.06 ± 0.016 (concentration: 0.1mM) and 1.02 ± 0.017 (concentration: 0.5mM).

For the target UniProt Q96L92 and related entries, the NP40-soluble protein abundance is, setting by setting: (concentration: 0.1mM) 1.02 ± 0.021; (concentration: 0.5mM) 0.97 ± 0.053.

In the case of ZNF622 (UniProt Q969S3), the NP40-soluble protein abundance runs as follows: (concentration: 0.1mM) 0.982 ± 0.044; (concentration: 0.5mM) 1.01 ± 0.046.

Take UHRF2 (UniProt Q96PU4): the NP40-soluble protein abundance was 0.979 ± 0.016 (concentration: 0.1mM) and 0.986 ± 0.035 (concentration: 0.5mM).

For the target KIAA1143 (UniProt Q96AT1), the NP40-soluble protein abundance runs as follows: (concentration: 0.1mM) 0.988 ± 0.068; (concentration: 0.5mM) 1.01 ± 0.035.

For the target UniProt Q96AJ9 and related entries, the NP40-soluble protein abundance worked out at 0.988 ± 0.025 (concentration: 0.1mM) and 0.999 ± 0.045 (concentration: 0.5mM).

Take WDR89 (UniProt Q96FK6): the NP40-soluble protein abundance runs as follows: (concentration: 0.1mM) 1.11 ± 0.087; (concentration: 0.5mM) 1.05 ± 0.024.

Regarding UniProt Q96F44 and related entries, the NP40-soluble protein abundance runs as follows: (concentration: 0.1mM) 1.02 ± 0.024; (concentration: 0.5mM) 1.001 ± 0.0083.

Take “UniProt Q96Q89-3|Q96Q89 and related entries”: the NP40-soluble protein abundance runs as follows: (concentration: 0.1mM) 0.986 ± 0.019; (concentration: 0.5mM) 0.984 ± 0.044.

RBM33 (UniProt Q96EV2): the NP40-soluble protein abundance is, setting by setting: (concentration: 0.1mM) 1 ± 0.024; (concentration: 0.5mM) 1.02 ± 0.045.

With UniProt Q96CS2, the NP40-soluble protein abundance (concentration: 0.1mM) was determined as 0.99 ± 0.086 and the NP40-soluble protein abundance (concentration: 0.5mM) turned out to be 0.98 ± 0.086.

Consider L3MBTL2 (UniProt Q969R5), for which the NP40-soluble protein abundance was 1 ± 0.02 (concentration: 0.1mM) and 0.984 ± 0.045 (concentration: 0.5mM).

With ATG4C (UniProt Q96DT6), the NP40-soluble protein abundance came to 1.01 ± 0.045 (concentration: 0.1mM) and 0.999 ± 0.011 (concentration: 0.5mM).

On to UniProt Q969R2 and related entries, for which the NP40-soluble protein abundance was found to be 1 ± 0.059 (concentration: 0.1mM) and 0.9793 ± 0.0078 (concentration: 0.5mM).

With UniProt Q969S9 and related entries, the NP40-soluble protein abundance came out at 1.02 ± 0.028 (concentration: 0.1mM) and 1 ± 0.015 (concentration: 0.5mM).

As for COG3 (UniProt Q96JB2), the NP40-soluble protein abundance runs as follows: (concentration: 0.1mM) 1 ± 0.035; (concentration: 0.5mM) 1 ± 0.023.

As to RCHY1 (UniProt Q96PM5), the NP40-soluble protein abundance (concentration: 0.1mM) is 0.994 ± 0.017 and the NP40-soluble protein abundance (concentration: 0.5mM) is 0.95 ± 0.041.

Take CCDC115 (UniProt Q96NT0): the NP40-soluble protein abundance (concentration: 0.1mM) is 1.01 ± 0.046 and the NP40-soluble protein abundance (concentration: 0.5mM) was found to be 1.02 ± 0.058.

Turning to YIPF6 (UniProt Q96EC8), the NP40-soluble protein abundance amounted to 1.0231 ± 0.00044 (concentration: 0.1mM) and 1.01 ± 0.039 (concentration: 0.5mM).

As for PAWR (UniProt Q96IZ0), the NP40-soluble protein abundance by setting is: (concentration: 0.1mM) 0.976 ± 0.019; (concentration: 0.5mM) 1.01 ± 0.053.

Turning to UniProt Q96BD8, the NP40-soluble protein abundance by setting is: (concentration: 0.1mM) 0.968 ± 0.019; (concentration: 0.5mM) 1 ± 0.029.

Consider DHRS1 (UniProt Q96LJ7), for which the NP40-soluble protein abundance is, setting by setting: (concentration: 0.1mM) 0.988 ± 0.025; (concentration: 0.5mM) 0.977 ± 0.022.

For UniProt Q96HS1 and related entries, the NP40-soluble protein abundance by setting is: (concentration: 0.1mM) 1.02 ± 0.052; (concentration: 0.5mM) 0.995 ± 0.058.

With UniProt Q96GC9, the NP40-soluble protein abundance (concentration: 0.1mM) amounted to 0.9931 ± 0.0015 and the NP40-soluble protein abundance (concentration: 0.5mM) was 0.9764 ± 0.0042.

As for UniProt Q96B23-2, the NP40-soluble protein abundance was found to be 0.965 ± 0.055 (concentration: 0.1mM) and 1.03 ± 0.067 (concentration: 0.5mM).

For OPTN (UniProt Q96CV9), the NP40-soluble protein abundance (concentration: 0.1mM) turned out to be 0.978 ± 0.017 and the NP40-soluble protein abundance (concentration: 0.5mM) is 0.997 ± 0.023.

On to NARS2 (UniProt Q96I59), for which the NP40-soluble protein abundance is, setting by setting: (concentration: 0.1mM) 1 ± 0.039; (concentration: 0.5mM) 0.981 ± 0.028.

For the target UniProt Q96EX2, the NP40-soluble protein abundance amounted to 0.987 ± 0.021 (concentration: 0.1mM) and 0.9991 ± 0.0088 (concentration: 0.5mM).

Take NTAN1 (UniProt Q96AB6): the NP40-soluble protein abundance is, setting by setting: (concentration: 0.1mM) 1 ± 0.012; (concentration: 0.5mM) 0.987 ± 0.012.

Turning to INTS4 (UniProt Q96HW7), the NP40-soluble protein abundance came out at 1.02 ± 0.025 (concentration: 0.1mM) and 0.992 ± 0.085 (concentration: 0.5mM).
